We go through one sequence from article PMC11804915, “Single-stranded DNA binding to the transcription factor PafBC triggers the mycobacterial DNA damage response”.

The data set deals with PafBC, PafC WCX variant W250A,Y254A,Y255A (Mycobacterium smegmatis). Put plainly: EMSA. To be noted: ssDNA EMSA: 22.5 mM Hepes-KOH pH 7.8, 135 mM NaCl, 20 mM KCl, 5 mM MgCl2, 1 mM DTT, 37 C 15 min, 10 nM DNA, 0-16 uM PafBC; recombinant protein; protein details: C-terminal Strep on PafC; label: FAM; single-stranded DNA. For orientation: A gel shift assay detects complexes by their altered migration in electrophoresis.

The exact form of at least one protein or probe is not confirmed. Weaker means in comparison with the reference protein, sequence or condition of that experiment.

As for TTTTTTTTTTTTTTTTTTTT [dT20 ssDNA], the binding result was “binds more weakly”.
